Assay results as given in paper PMC3742671, “Structure, Antimicrobial Activities and Mode of Interaction with Membranes of Bovel Phylloseptins from the Painted-Belly Leaf Frog, Phyllomedusa sauvagii” (PLoS ONE, 2013).

What was measured:
[1] = Differential scanning calorimetry on multilamellar vesicles; conditions: mean from six scans; for ΔTm, first of the two observed components / ΔTm, second of the two observed components: peptide/lipid 1:50; for ΔTm (Tm – Tm w/o peptide) of main phase transition: peptide/lipid 1:100
[2] = as above; conditions: mean from six scans

Row | Substance | ΔTm, first of the two observed components [1] [°C] | ΔTm, second of the two observed components [1] [°C] | ΔTm (Tm – Tm w/o peptide) of main phase transition [1] [°C] | ΔTm (Tm – Tm w/o peptide) of main phase transition ([2]; peptide/lipid 1:50) [°C] | ΔTm (Tm – Tm w/o peptide) of main phase transition ([2]; peptide/lipid 1:100) [°C]
1 | FLSLIPHIVSGVASIAKHF-NH2 [PLS-S1] | −1 | 0.6 | 0 | 0.1 | 0.3
2 | FLSLIPHIVSGVASLAKHF-NH2 [PLS-S2] | −1.1 | 0.8 | 0 | 0.2 | 0.2
3 | FLSMIPHIVSGVAALAKHL-NH2 [PLS-S4] | −0.1 | 5.1 | 1.1 | 0 | 0.1

Ends that are not written are not given here.
